Data from patent US9163018B2, “Method of treatment of age-related macular degeneration (AMD)” (Prana Biotechnology Limited, priority 2006, dated 2015).
At least one structure is not confirmed: it was looked up by name or label, or the drawing left a doubt.

Tested on: Abeta in extract of post-mortem human AD brain tissue
Assay: BAS: human brain amyloid solubilization assay
Assay type: biochemical
Protocol: Assay 5. Human Brain Amyloid Solubilization Assay
This assay was performed in order to assess the ability of a test compound to mobilise Aβ, as an example form of amyloid, from the insoluble to the soluble phase of an extract of tissue from post mortem human AD brain.
Up to 0.5 g of plaque-bearing cortex without meninges was homogenized using a DIAX 900 homogenizer (Hendolph and Co, Kelheim, Germany) or other suitable device for three 30-second periods at full speed in 2 ml of ice-cold phosphate-buffered saline, pH 7.4. To obtain the phosphate-buffered saline-extractable fraction, the homogenate was centrifuged at 100,000×g for 30 min and the supernatant removed. […]
Tris-Tricine polyacrylamide gel electrophoresis was performed by loading appropriately diluted samples on to 10% to 20% gradient gels (Novex, San Diego, Calif.) followed by transfer on to 0.2-μm nitrocellulose membrane (Bio-Rad, Hercules, Calif.). Aβ was detected by using monoclonal antibody W02, which detects residues 5 through 8, […] (or another suitable antibody) in conjunction with horseradish peroxidase-conjugated rabbit anti-mouse IgG (Dako, Denmark), and visualized by using enhanced chemiluminescence (eg ECL; Amersham Life Science, Buckinghamshire, UK). […]
All samples were analyzed at least twice, and gel loadings and dilutions were adjusted to fit within the quantifiable region of the standard curve. […]

**Q.** Which results are given for CN(C)c1ccc(-c2cc(Cl)c3cccnc3c2O)cc1 [PB 851]?
**A.** BAS max effect (max effect across the concentration range, referenced to baseline PBS): 362%; BAS concentration or concentration range at which an effect is observed (units printed in each cell): 100 µM
